Experimental data: publication PMC9396398, “Crystal structure of Ankyrin-G in complex with a fragment of Neurofascin reveals binding mechanisms required for integrity of the axon initial segment” (The Journal of Biological Chemistry, 2022)
Results are given in words; binding and its absence hold for the method and conditions named. Some binding calls cover weakened binding; strength is not graded here.

By UniProt entry, the sequences of proteins in these tests, tags left out.
UniProt Q05695: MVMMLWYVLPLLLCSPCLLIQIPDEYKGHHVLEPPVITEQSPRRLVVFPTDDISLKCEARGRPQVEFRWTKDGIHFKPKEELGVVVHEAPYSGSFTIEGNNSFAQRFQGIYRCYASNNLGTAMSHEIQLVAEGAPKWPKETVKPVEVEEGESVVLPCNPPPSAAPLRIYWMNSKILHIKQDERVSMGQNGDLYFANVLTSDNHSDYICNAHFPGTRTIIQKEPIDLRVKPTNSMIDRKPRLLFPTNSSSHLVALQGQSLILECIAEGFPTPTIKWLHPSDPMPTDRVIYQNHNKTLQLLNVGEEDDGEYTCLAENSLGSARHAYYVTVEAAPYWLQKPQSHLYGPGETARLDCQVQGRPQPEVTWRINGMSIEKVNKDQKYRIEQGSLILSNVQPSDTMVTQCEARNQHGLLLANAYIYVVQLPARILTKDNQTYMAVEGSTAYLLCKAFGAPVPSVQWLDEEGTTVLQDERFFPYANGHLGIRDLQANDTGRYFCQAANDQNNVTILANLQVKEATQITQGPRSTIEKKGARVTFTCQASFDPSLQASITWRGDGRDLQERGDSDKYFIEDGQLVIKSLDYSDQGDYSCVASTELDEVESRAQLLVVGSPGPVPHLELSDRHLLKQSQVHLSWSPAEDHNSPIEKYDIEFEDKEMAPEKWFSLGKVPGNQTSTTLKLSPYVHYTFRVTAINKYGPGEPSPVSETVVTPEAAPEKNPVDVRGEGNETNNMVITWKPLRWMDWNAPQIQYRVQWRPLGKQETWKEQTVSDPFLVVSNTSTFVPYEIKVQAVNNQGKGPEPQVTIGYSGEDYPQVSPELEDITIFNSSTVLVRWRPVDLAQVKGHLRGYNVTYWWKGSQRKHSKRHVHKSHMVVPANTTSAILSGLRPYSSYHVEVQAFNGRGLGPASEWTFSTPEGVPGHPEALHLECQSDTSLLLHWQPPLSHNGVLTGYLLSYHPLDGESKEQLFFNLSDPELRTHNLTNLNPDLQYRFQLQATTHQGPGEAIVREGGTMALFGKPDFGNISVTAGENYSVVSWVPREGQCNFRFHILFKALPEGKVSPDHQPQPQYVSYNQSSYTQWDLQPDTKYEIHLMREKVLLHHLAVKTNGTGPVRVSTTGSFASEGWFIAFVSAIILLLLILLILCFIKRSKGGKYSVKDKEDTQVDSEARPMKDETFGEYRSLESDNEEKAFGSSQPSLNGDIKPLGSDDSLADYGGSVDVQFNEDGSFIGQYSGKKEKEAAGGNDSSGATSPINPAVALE

T1: AnkG ANK repeats (residues 38-855, R1-24) (UniProt O70511)
T1 sequence: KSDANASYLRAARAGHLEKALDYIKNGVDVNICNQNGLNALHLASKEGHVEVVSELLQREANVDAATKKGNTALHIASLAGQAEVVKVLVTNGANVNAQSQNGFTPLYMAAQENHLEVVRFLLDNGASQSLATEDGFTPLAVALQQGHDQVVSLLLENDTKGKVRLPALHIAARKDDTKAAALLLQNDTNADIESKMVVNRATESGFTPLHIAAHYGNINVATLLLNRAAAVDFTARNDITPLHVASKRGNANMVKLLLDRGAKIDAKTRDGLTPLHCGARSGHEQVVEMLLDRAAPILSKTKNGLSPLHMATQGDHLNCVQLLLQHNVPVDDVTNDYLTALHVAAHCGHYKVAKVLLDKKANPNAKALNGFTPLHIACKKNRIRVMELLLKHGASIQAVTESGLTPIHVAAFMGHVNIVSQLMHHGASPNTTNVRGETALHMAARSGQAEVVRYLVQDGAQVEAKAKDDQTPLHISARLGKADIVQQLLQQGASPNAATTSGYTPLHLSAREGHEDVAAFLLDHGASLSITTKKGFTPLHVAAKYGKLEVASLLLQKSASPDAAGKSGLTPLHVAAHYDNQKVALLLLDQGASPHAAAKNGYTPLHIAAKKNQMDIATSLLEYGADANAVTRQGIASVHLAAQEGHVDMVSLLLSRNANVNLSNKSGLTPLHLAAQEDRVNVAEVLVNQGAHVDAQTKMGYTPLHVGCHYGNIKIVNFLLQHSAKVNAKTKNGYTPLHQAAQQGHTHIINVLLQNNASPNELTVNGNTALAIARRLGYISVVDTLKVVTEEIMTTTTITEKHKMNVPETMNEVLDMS

T2: AnkG R8-16 (AnkG 275 to 571) (UniProt O70511)
T2 sequence: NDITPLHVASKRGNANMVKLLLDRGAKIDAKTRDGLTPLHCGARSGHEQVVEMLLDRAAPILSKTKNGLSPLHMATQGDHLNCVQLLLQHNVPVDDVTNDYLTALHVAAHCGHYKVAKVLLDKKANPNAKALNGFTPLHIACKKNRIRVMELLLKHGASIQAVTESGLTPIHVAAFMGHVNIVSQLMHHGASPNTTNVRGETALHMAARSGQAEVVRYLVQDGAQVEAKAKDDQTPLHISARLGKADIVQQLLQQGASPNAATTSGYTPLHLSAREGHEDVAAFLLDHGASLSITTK


Key:
[1] = molecular target: T1, AnkG ANK repeats (residues 38-855, R1-24); assay: SEC; analytical gel filtration (FPLC) on Superose 12 or Superdex 200 increase; 50 mM Tris, 100 mM NaCl, 1 mM EDTA, 1 mM DTT, pH 7.8; both purified
[2] = molecular target: T2, AnkG R8-16 (AnkG 275 to 571); assay: crystal structure; Nfasc 1187-1214 fused by the linker GSLVPRGS to the N-terminus of AnkG 275-571, tag removed; hanging drop at 16 °C; 2.5 Å; molecular replacement; both purified
[3] = molecular target: T1, AnkG ANK repeats (residues 38-855, R1-24); assay: ITC; VP-ITC at 25 °C; 50 mM Tris, 100 mM NaCl, 1 mM EDTA, 1 mM DTT, pH 7.8; Nfasc proteins (200 μM) in the syringe, AnkG proteins (20 μM) in the cell; one-site binding model; both purified
[4] = molecular target: GST-L1CAM 1206 to 1233 WT (UniProt Q05695); assay: pull-down; GST pull-down: AnkG R1-24 (60 μM) incubated with 20 μM GST or GST-L1CAM 1206-1233 proteins 1 h at 4 °C, GSH-sepharose 4B beads, 3 washes, Coomassie blue staining; 50 mM Tris, 100 mM NaCl, 1 mM EDTA, 1 mM DTT, pH 7.8; both purified

Binder | binding [3] | other results
SDDSLVDYGEGGEGQFNEDGSFIGQYTV (domain or fragment, UniProt P97685 1187-1214, looked up, also called Nfasc ABD; source: E. coli BL21 (DE3), purified (Ni-NTA, size-exclusion chromatography)) [Nfasc ankyrin-binding domain (ABD, residues 1187-1214)] |  | binding [1]: binds; binding [2]: binds
GEGQFNEDGSQIGQYTV (domain or fragment) [Nfasc 1198 to 1214 F1208Q] | binds | 
GEGQFNEKGSFIGQYTV (domain or fragment) [Nfasc 1198 to 1214 D1205K] | binds | 
AnkG ANK repeats (residues 38-855, R1-24) (domain or fragment, UniProt O70511 38-855) KSDANASYLRAARAGHLEKALDYIKNGVDVNICNQNGLNALHLASKEGHVEVVSELLQREANVDAATKKGNTALHIASLAGQAEVVKVLVTNGANVNAQSQNGFTPLYMAAQENHLEVVRFLLDNGASQSLATEDGFTPLAVALQQGHDQVVSLLLENDTKGKVRLPALHIAARKDDTKAAALLLQNDTNADIESKMVVNRATESGFTPLHIAAHYGNINVATLLLNRAAAVDFTARNDITPLHVASKRGNANMVKLLLDRGAKIDAKTRDGLTPLHCGARSGHEQVVEMLLDRAAPILSKTKNGLSPLHMATQGDHLNCVQLLLQHNVPVDDVTNDYLTALHVAAHCGHYKVAKVLLDKKANPNAKALNGFTPLHIACKKNRIRVMELLLKHGASIQAVTESGLTPIHVAAFMGHVNIVSQLMHHGASPNTTNVRGETALHMAARSGQAEVVRYLVQDGAQVEAKAKDDQTPLHISARLGKADIVQQLLQQGASPNAATTSGYTPLHLSAREGHEDVAAFLLDHGASLSITTKKGFTPLHVAAKYGKLEVASLLLQKSASPDAAGKSGLTPLHVAAHYDNQKVALLLLDQGASPHAAAKNGYTPLHIAAKKNQMDIATSLLEYGADANAVTRQGIASVHLAAQEGHVDMVSLLLSRNANVNLSNKSGLTPLHLAAQEDRVNVAEVLVNQGAHVDAQTKMGYTPLHVGCHYGNIKIVNFLLQHSAKVNAKTKNGYTPLHQAAQQGHTHIINVLLQNNASPNELTVNGNTALAIARRLGYISVVDTLKVVTEEIMTTTTITEKHKMNVPETMNEVLDMS |  | binding [4]: binds
GEGQFNEAGSFIGQYTV (domain or fragment) [Nfasc 1198 to 1214 D1205A] | binds | 

Second part, led by results:

binding [3] | Binder | other results
binds | full-length Nfasc cytoplasmic tail (residues 1132-1240) (domain or fragment) KRSRGGKYPVREKKDVPLGPEDPKEEDGSFDYSDEDNKPLQGSQTSLDGTIKQQESDDSLVDYGEGGEGQFNEDGSFIGQYTVRKDKEETEGNESSEATSPVNAIYSLA | 
binds | GEGQFNEDGSFQGQYTV (domain or fragment) [Nfasc 1198 to 1214 I1209Q] | 
binds | GEGQFNEDGSFIGQYTV (domain or fragment) [Nfasc 1198 to 1214 WT] | 
